The values that follow come from article PMC5458252, “Niclosamide is a potential therapeutic for familial adenomatosis polyposis by disrupting Axin-GSK3 interaction” (Oncotarget, 2017).

By UniProt entry, the sequences of proteins in these tests, tags left out.
UniProt P49841: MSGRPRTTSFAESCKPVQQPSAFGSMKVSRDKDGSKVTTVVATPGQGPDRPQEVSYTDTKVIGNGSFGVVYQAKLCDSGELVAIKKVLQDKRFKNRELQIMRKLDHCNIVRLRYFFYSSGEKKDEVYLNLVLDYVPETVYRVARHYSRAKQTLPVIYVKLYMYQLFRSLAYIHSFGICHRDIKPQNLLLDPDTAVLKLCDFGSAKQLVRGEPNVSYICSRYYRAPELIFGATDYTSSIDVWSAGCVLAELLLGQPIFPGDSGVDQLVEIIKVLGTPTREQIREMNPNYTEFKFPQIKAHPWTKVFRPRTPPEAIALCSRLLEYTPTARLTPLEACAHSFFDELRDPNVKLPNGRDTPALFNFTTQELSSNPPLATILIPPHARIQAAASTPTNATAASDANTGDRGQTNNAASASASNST

Results are given in words; binding and its absence hold for the method and conditions named. Some binding calls cover weakened binding; strength is not graded here.

Test [1] deals with His-tagged recombinant GSK3β (UniProt P49841). Nature of the test: SPR; ProteOn XPR36; GSK3β immobilised on a GLH sensor chip; peptides in PBS with Tween 20 and 1% DMSO flowed at 100 μl/min; Langmuir model; both purified. (In general: SPR reads the build-up and loss of mass on a sensor chip optically.)
Test [2] shares this target. Kind of test: cell-free Axin-FITC fluorescence (AFF) assay; His-tagged GSK3 (300 ng) on Ni-NTA beads; FITC Axin peptide (10 ng) with different concentrations of niclosamide, 2 h at 4 °C, PBS pH 7.4 washes; fluorescence of the beads (488/525 nm); both purified.

In the case of VEPQKAAEEAIHRAEAVQR [19-mer mutant Axin peptide], the binding entry in test [1] is “no binding (tested: 20 μM)”.
For VEPQKFAEELIHRLEAVQR (FITC-conjugated (position not given)) [FITC-conjugated 19-mer Axin peptide (Axin1, 383-401)], the binding entry in test [2] is recorded as “binds”.
